# “And” between values parts separate entries of the source, which are not always exact repeats. Identical values can stand only once. About 13,000 (3.2%) of roughly 400,000 compounds were called active. The inconclusive results got no clear call from the source; some entries with a clear call stand among them for comparison. Calls come from the whole dose curve; as a rule, active = well fitted cell-killing curve with a large enough effect; inconclusive = small, poorly fitted or top-dose-only effect, or effect the other way; inactive = flat fitted curve, though single readings scatter. Where the call is inconclusive, the potency comes from a doubtful curve fit.
# Test: qHTS assay for MDR1-selective chemotherapeutics: Primary screen using the drug-selected MDR subline cells KB-V1; note: nearly all actives have a fitted effect of over 60% in size
# Details: KB-V1 MDR cells viability, CellTiter-Glo, 72 h; activity change, negative = cytotoxicity: at 46.1 µM (top of the series)
# Method in brief: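 KB-V1, DMEM (no phenol red) + 10% FBS; cpd pin-transferred, titration series; 72 h, 37 degrees C; CellTiter-Glo, luminescence. Data normalized, curve-fit.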
# % is set by controls: 0 for no effect and ±100 for the full control effect; potency is the fitted concentration of half-maximal effect.
SMILES,Potency,"activity change, negative = cytotoxicity"
CCC(C)Sc1cccc(-c2nc3cnccn3c2NC2CCCCC2)c1 (stereo not drawn),"inconclusive: 29.1 µM [cytotoxic, single point]",–
COc1cc(OC)c2cc(C(=O)N/N=C/c3cccc(OC)c3O)[nH]c2c1,"inconclusive: 18.4 µM [cytotoxic, partial curve, poor fit]",–
CCn1ccc(C(=O)NC2CCCC2)n1,–,inactive: 7.19%
CCOC(=O)c1cc(S(=O)(=O)N2CCN(c3ccccc3F)CC2)[nH]n1,–,inactive: 10.2%
CCN(CC)CCCN(C(=O)c1cccs1)c1nc(-c2ccc(OC)cc2)cs1,active: 8.2 µM,–
Cc1ccc2nc(SCC(=O)c3ccc(Cl)s3)[nH]c2c1,active: 13 µM,–
COc1ccc(-c2csc(NC(=O)c3cc(C)on3)c2C#N)cc1OC,active: 16.4 µM,–
COc1ccc2[nH]c(=O)c(CN(Cc3nnnn3Cc3ccco3)C3CCCCC3)cc2c1,–,inactive: -18.6%
CC(NC(=O)/C(=C/c1ccc(OC(F)F)cc1)c1ccccc1)c1ccccc1 (stereo not drawn),active: 6.51 µM,–
Cc1cccnc1NC(=O)CCCc1c[nH]c2ccccc12,"inconclusive: 0.0041 µM [cytotoxic, full curve, poor fit]",–
O=C(C1CCN(S(=O)(=O)c2ccccc2F)CC1)N1CCc2ccccc21,–,inactive: -19.5%
COc1ccc(NC(=O)C2CC2)cc1NS(=O)(=O)c1ccc(F)cc1,"inconclusive: 8.2 µM [cytotoxic, partial curve]",–
COc1ccc(C(=O)NCC(c2ccco2)N2CCc3ccccc32)cc1OC (stereo not drawn),"inconclusive: 8.2 µM [cytotoxic, partial curve]",–
CCCNC(=O)c1cc2c(c(-c3cccc(-c4ccccc4F)c3)n1)[C@H](CCO)N(C(=O)CC1CC1)C2,"inconclusive: 18.4 µM [cytotoxic, partial curve, poor fit]",–
CC(=O)N1CCc2cc(Br)cc(S(=O)(=O)N3CCCCC3)c21,"inconclusive: 7.31 µM [cytotoxic, partial curve]",–
N#Cc1ccc(NCCc2ccccn2)c([N+](=O)[O-])c1,active: 1.84 µM,–
COc1ccc(CNC(=O)CN(c2ccccc2)S(=O)(=O)c2ccccc2[N+](=O)[O-])cc1,"inconclusive: 10.3 µM [cytotoxic, partial curve]",–
Cc1cc(Cl)ccc1NC(=S)NCCC(c1ccccc1)c1ccccc1,"inconclusive: 14.1 µM [cytotoxic, partial curve, poor fit]",–
N#Cc1ccccc1Sc1ccccc1C(=O)NCC(c1ccco1)N1CCCC1 (stereo not drawn),"inconclusive: 8.2 µM [cytotoxic, partial curve]",–
Cn1c(=O)[nH]c(=O)c2c1nc(NCCc1ccccc1)n2Cc1ccc(F)cc1,"inconclusive: 2.31 µM [cytotoxic, partial curve, poor fit]",–
CCOC(=O)[C@]12CCCC=C1N(Cc1ccc(Cl)cc1Cl)C(=O)[C@H](CC(=O)N1CCOCC1)C2,"inconclusive: 4.61 µM [cytotoxic, full curve]",–
COc1ccc(/C=N/Nc2nc3ccccc3[nH]2)cc1OC,"inconclusive: 20.6 µM [cytotoxic, single point]",–
O=C1NC[C@H](CC2CCCCC2)N(CCc2cc(C(F)(F)F)cc(C(F)(F)F)c2)C1=O,"inconclusive: 37.2 µM [cytotoxic, single point]",–

SMILES,Potency,"activity change, negative = cytotoxicity"
COc1cc(NC(=S)N2CCCC(C)C2)cc(OC)c1OC (stereo not drawn),"inconclusive: 29.1 µM [rising, single point]",–
O=C(CCCN1C(=O)/C(=C/c2cccc(Br)c2)SC1=S)NCCCN1CCOCC1,"inconclusive: 2.06 µM [rising, full curve]",–
CC(=O)N1CCN(c2cccc(C)c2C)CC1,"inconclusive: 18.4 µM [cytotoxic, single point]",–
CCOC(=O)c1cccc(N2C(N)=NC(N)=NC2(C)C)c1,"inconclusive: 29.1 µM [rising, partial curve, poor fit]",–
CC(C)(C)c1ccc(C(=O)Nc2ccc(N3CCOCC3)cc2)cc1,"inconclusive: 10.3 µM [cytotoxic, partial curve, poor fit]",–
CCOC(=O)CSc1nc2cc(C(=O)N3CCCC3)ccc2c(=O)n1Cc1ccccc1,"inconclusive: 29.1 µM [cytotoxic, single point]",–
COc1ccc(S(=O)(=O)N2CCOCC2)cc1NC(=O)c1cc2c(s1)CCCC2,–,inactive: -9.69%
CCn1cc(/C=N\NC(=O)COc2cccc(C)c2C)c(C)n1,"inconclusive: 23.1 µM [rising, single point]",–
O=C(Nc1nc(-c2ccc(F)c(F)c2)cs1)c1cc([N+](=O)[O-])ccc1N1CCOCC1,–,inconclusive: -37%
CCOc1ccccc1-c1nc(SCC(=O)O)n[nH]1,"inconclusive: 29.1 µM [rising, single point]",–
COC(=O)c1[nH]c2c(c1C)C(=O)CC(c1cc(OC)ccc1OC)C2 (stereo not drawn),active: 5.17 µM,–
Fc1cccc(Cl)c1CSc1ccc(-c2ccco2)nn1,"inconclusive: 16.4 µM [cytotoxic, single point]",–
CC(NC(=O)c1cc(F)c(F)cc1Cl)c1ccncc1 (stereo not drawn),"inconclusive: 0.184 µM [rising, full curve]",–
O=C(C(=O)N1CCCN(Cc2ccc(F)cc2)CC1)c1ccccc1,"inconclusive: 18.4 µM [cytotoxic, single point]",–
O=C(COc1ccccc1C(=O)NCC1CCCO1)Nc1ccc(Cl)cc1Cl (stereo not drawn),"inconclusive: 5.8 µM [cytotoxic, partial curve]",–
COc1ccc(OC)c(N(CC(=O)Nc2cccnc2)S(=O)(=O)c2ccc(C)cc2)c1,"inconclusive: 13 µM [cytotoxic, partial curve]",–
Cn1cnc2c(=O)oc3ccc(S(=O)(=O)Nc4ccc(F)cc4)cc3c21,"inconclusive: 0.58 µM [rising, full curve]",–
COc1cc(NC(=O)c2cn(C3CCCC3)c(=O)c3c2c2ccccc2n3C)cc(OC)c1OC,"inconclusive: 29.1 µM [cytotoxic, single point]",–
COc1cc(NC(=O)c2ccco2)c(OC)cc1NC(=O)c1cc(OC)c(OC)c(OC)c1,"inconclusive: 0.259 µM [cytotoxic, full curve, poor fit]",–
Cc1ccc(C(=O)N(Cc2cccnc2)Cc2cc3cc(C)ccc3n3nnnc23)cc1,"inconclusive: 3.66 µM [cytotoxic, full curve]",–
CNC(=O)c1sccc1SCc1ccc(Cl)cc1Cl,"inconclusive: 11.6 µM [cytotoxic, partial curve, poor fit]",–
COc1ccc(S(=O)(=O)N2CCCCC2c2cc(C(=O)NCc3ccccc3)no2)cc1 (stereo not drawn),–,inactive: -1.4%
COc1cc2c(cc1OC)CN(C(=O)C1CCCN1S(=O)(=O)c1ccc(F)cc1)CC2 (stereo not drawn),"inconclusive: 2.06 µM [cytotoxic, partial curve, poor fit]",–

SMILES,Potency,"activity change, negative = cytotoxicity"
CCc1c(C2(O)CCCCC2)[nH]c2cnccc12,–,inactive: 3.02%
Cc1ccc(Cl)cc1N(C)C(=O)c1cn(C2CCCCC2)c(=O)c2c1c1ccccc1n2C,"inconclusive: 18.4 µM [cytotoxic, single point]",–
CC(C)(C)c1ccc(Cn2c(=N)n(CC(O)c3ccco3)c3ccccc32)cc1 (stereo not drawn),"inconclusive: 18.4 µM [cytotoxic, single point]",–
O=C(Nc1cccc(-c2nnc(-c3ccccc3)o2)c1)C1CC1,active: 10.3 µM,–
O=C(NCc1ccccc1OC(F)(F)F)C1CCC(=O)N(CCCN2CCOCC2)C1 (stereo not drawn),–,inactive: 20.6%
O=C(CCNS(=O)(=O)c1cccc(C(F)(F)F)c1)NC1CC1,"inconclusive: 16.4 µM [rising, partial curve]",–
CCOC(=O)c1nc(C)nc(Sc2n[nH]c(-c3ccccc3)n2)c1C,"inconclusive: 29.1 µM [cytotoxic, single point]",–
CCN(Cc1ccccc1)S(=O)(=O)c1ccc2c(c1)CC(C)N2C(=O)C1CCC1 (stereo not drawn),"inconclusive: 4.61 µM [cytotoxic, partial curve]",–
CCOC(=O)N1CCN(C(c2cccnc2)c2ccc3cccnc3c2O)CC1 (stereo not drawn),active: 16.4 µM,–
Cc1ccc(N2C(=O)CC(Sc3nccc(C)n3)C2=O)cc1 (stereo not drawn),–,inactive: 3.4%
N#CC(OC(=O)c1ccccc1)c1cccc([N+](=O)[O-])c1 (stereo not drawn),"inconclusive: 29.1 µM [rising, single point]",–
Cc1ccc2onc(CC(=O)Nc3ccc(C(C)C)cc3)c2c1,–,inactive: -9.85%
O=c1c2oc3ccccc3c2n(Cc2ccccc2F)c(=O)n1Cc1ccccc1,–,inactive: -4.2%
C[n+]1c(/C=C/c2ccc(N)cc2)sc2ccccc21,–,inactive: 0%
CCOC(=O)N1CCN(C(=O)/C(=C/c2cccc3ccccc23)NC(=O)c2ccc(OC)c(OC)c2)CC1,active: 4.61 µM,–
CCCCCOC(=O)Cn1c(=O)c2c(nc(N3CCOCC3)n2C)n(C)c1=O,active: 16.4 µM,–
CCOC(=O)/C=C1\SCC(=O)N1CCOc1cccc(Br)c1,"inconclusive: 16.4 µM [cytotoxic, single point]",–
O=C(Nn1c(SCc2ccc(F)cc2)nc2ccsc2c1=O)c1ccccc1,active: 4.11 µM,–
Cc1ccc2nc(NC(=O)CN(C)S(=O)(=O)c3cccc4nsnc34)sc2c1,"inconclusive: 2.59 µM [cytotoxic, full curve, poor fit]",–
COc1ccc(/C=C2\SC(=O)N(CC(=O)NC3CCS(=O)(=O)C3)C2=O)cc1 (stereo not drawn),"inconclusive: 5.8 µM [rising, full curve, poor fit]",–
Cc1cc(C)cc(S(=O)(=O)Cc2noc(C(=O)NCc3ccccc3)c2C(=O)NCc2ccccc2)c1,"inconclusive: 29.1 µM [cytotoxic, single point]",–
CCOC(=O)C1=C(COCCN)NC(C)=C(C(=O)OC)C1c1ccccc1Cl (stereo not drawn),"inconclusive: 18.4 µM [cytotoxic, single point] and inconclusive: 16.4 µM [cytotoxic, single point] and inconclusive: 6.51 µM [cytotoxic, partial curve, poor fit]",–

# From PubChem BioAssay AID1347076 (National Center for Advancing Translational Sciences (NCATS), 2019)
